The values below come from the supplement of paper PMC5407854, “Inhibitor of ppGalNAc-T3-mediated O-glycosylation blocks cancer cell invasiveness and lowers FGF23 levels” (eLife, 2017).

The other results are listed elsewhere or left out. Most entries show no effect beyond the scatter of the controls.

For this assay, the system named is ppGalNAc-T2 sensor. The experiment in a line: T2 sensor activation Q score (MG/GFP ratio z-score vs DMSO controls) (SD units); higher = more sensor activation (inhibition of ppGalNAc-T2 glycosylation). Particulars: HEK293 sensor cells; 10 µM; 6 h. The protocol:
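Cells were treated with compound at 10 uM for 6 h, then MG/GFP ratio was read by flow cytometry (10,000 cells per well, duplicate wells). Q = (R - R_neg)/SD_neg relative to DMSO vehicle controls; the signal rises when the glycosyltransferase is inhibited.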
With `c1ccc(Oc2cccc(CN3CCSCC3)c2)cc1`, the “T2 sensor activation Q score” value amounted to 0.325.
As to `O=C(O)CCCC[C@H]1SC[C@H]2NC(=O)N[C@H]21`, the “T2 sensor activation Q score” value is -0.145.
Regarding `C[C@H](NC(=O)Cc1ccccc1)c1ccccc1`, the “T2 sensor activation Q score” value is -0.47.
The result for `O=C1c2ccccc2-c2onc3c(Br)cc(O)c1c23` reads -0.17; that for `O=[N+]([O-])c1ccc(CN2CCN(Cc3ccccc3)CC2)o1`, 1.25.
Under `Cc1ccc(C(=O)Nc2ccc(C(=O)O)cc2)cc1C` stands -0.01.
In the case of `Cn1c(S(=O)(=O)Cc2ccc(Cl)cc2)nc2ccccc21`, the “T2 sensor activation Q score” value was 1.66.
Under `Cc1ccc(NC(=O)Nc2ccccc2)c(Br)c1` stands 1.25.
The result for `Cc1ccccc1NC1=CC(=O)CC(c2ccccc2)C1` (stereo not given) reads -0.945.
The result for `Cc1nc2ccc(C(=O)O)cc2[nH]1` reads 0.345.
Regarding `NNC(=O)c1n[nH]c2c1CCC2`, the “T2 sensor activation Q score” value was determined as 2.38.
Consider `CC(NS(=O)(=O)c1ccc(Br)cc1)c1ccccc1` (stereo not given), for which the “T2 sensor activation Q score” value was -0.92.
Turning to `Cc1cccc(CN2CCC(O)CC2)c1`, the “T2 sensor activation Q score” value is 0.25.
Take `CC(C(=O)NCC1(c2ccccc2)CCOCC1)N1CCCC1` (stereo not given): the “T2 sensor activation Q score” value was -0.815.
Under `CCC(=O)Nc1nc2ccccc2n1CCN1CCOCC1` stands 0.755; under `COc1cc(CN2CCC(C)CC2)c([N+](=O)[O-])cc1OC`, 1.22.
Take `CNC(=O)c1c(O)c2ccccc2[nH]c1=O`: the “T2 sensor activation Q score” value came to 1.41.
The result for `Cc1cc(C)c(C(=O)c2ccc(C(=O)N3CCOCC3)cc2)c(C)c1` reads -0.115; that for `CCc1ccccc1NC(=O)Nc1cccc(Cl)c1`, -0.13; that for `O=C1C(=O)N(CCO)C(c2ccccc2)C1=C(O)c1ccccc1` (stereo not given), 0.54.
The result for `Cc1cc(C)n(C2CC(=O)N(c3cccc(Cl)c3)C2=O)n1` (stereo not given) reads -0.605; that for `CC(=O)c1ccc(N2CCN(Cc3ccc(N(C)C)cc3)CC2)cc1`, 0.94; that for `Cc1c(Cl)cccc1NC(=O)C1CCN(C(=O)Cc2ccccc2)CC1`, 0.945.
Under `CC(C)N(C(=O)Nc1cccc(Cl)c1)C(C)C` stands -0.3; under `CC(Cc1c[nH]c2ccccc12)NC(N)=O` (stereo not given), -1.04; under `COc1ccc(Br)cc1S(=O)(=O)N1CC(C)CC(C)C1` (stereo not given), 0.91.
For `COc1cc(CN2CCN(C/C=C/c3ccccc3)CC2)cc(OC)c1OC`, the “T2 sensor activation Q score” value was 0.005.
In the case of `COc1ccc(OCCOc2ccc(C)cc2OC)cc1`, the “T2 sensor activation Q score” value was -0.11.
Regarding `Cc1cccc2oc(-c3cccc(NC(=O)c4ccccc4I)c3)nc12`, the “T2 sensor activation Q score” value is -0.905.
The result for `COc1ccccc1CNC(=O)c1cccc(I)c1` reads -0.975.
In the case of `Clc1ccc(OCc2nc3ccccc3[nH]2)c(Cl)c1`, the “T2 sensor activation Q score” value was -0.265.
Consider `Cc1ccc(S(=O)(=O)Nc2ccc(Cl)cc2)cc1`, for which the “T2 sensor activation Q score” value is -1.78.
With `c1ccc2c(c1)nc(N1CCCC1)n2CCN1CCCCC1`, the “T2 sensor activation Q score” value was 0.475.
The result for `Cc1ccc(NC(=O)CCC(=O)O)cc1F` reads -0.9; that for `COc1ccc2c(c1C)CCC(C1(O)C(=O)Nc3ccccc31)C2=O` (stereo not given), -0.495.
Under `CC(C)(C)c1ccc(C(=O)Nc2ccc(F)cc2)cc1` stands -0.44; under `O=C(NC(Cc1ccc(O)cc1)C(=O)O)c1ccccc1` (stereo not given), -1.
Turning to `NC(=O)C1CCCN(Cc2ccc(Cl)cc2)C1` (stereo not given), the “T2 sensor activation Q score” value is 0.325.
On to `Cc1ccc(S(=O)(=O)NC(C)C)cc1[N+](=O)[O-]`, for which the “T2 sensor activation Q score” value is -1.17.
Under `NC(=O)c1ccccc1NC(=O)c1ccc(-c2ccccc2)cc1` stands -0.45.
